In article doi:10.1101/402123 (bioRxiv, 2018) one finds binding data, which are given here for one molecule.

Positions count from the first letter of the chain named. These are yes or no findings as the source states them, for the method shown. Some binding calls cover weakened binding; strength is not graded here. No end group written: not given here. fluorescein = N-terminal fluorescein label

Experiment [1] has as its target T1, BP230 10-162 (human) (UniProt Q03001).
T1 sequence (chain, Oregon Green 488 on thiol groups (fluorescence anisotropy assay)): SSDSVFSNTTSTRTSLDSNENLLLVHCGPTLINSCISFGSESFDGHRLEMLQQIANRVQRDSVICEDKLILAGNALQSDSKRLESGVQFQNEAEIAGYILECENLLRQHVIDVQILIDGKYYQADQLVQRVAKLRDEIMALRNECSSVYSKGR
Kind of experiment: fluorescence polarisation.

Experiment [2] has as its target T2, BP230 SR2 (56-162) (human) (UniProt Q03001).
T2 sequence (chain, Oregon Green 488 on thiol groups (fluorescence anisotropy assay)): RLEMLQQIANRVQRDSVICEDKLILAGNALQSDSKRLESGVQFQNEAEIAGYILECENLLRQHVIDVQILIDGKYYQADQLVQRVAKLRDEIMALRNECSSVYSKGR
Kind of experiment: fluorescence polarisation. Background: In fluorescence polarisation assays a small probe gives low polarisation when free and higher when bound to something large.

Experiment [3] addresses T3, BP230 10-162 S49D (human) (UniProt Q03001).
T3 sequence (chain, Oregon Green 488 on thiol groups): T1 sequence (chain, Oregon Green 488 on thiol groups (fluorescence anisotropy assay)) with S40D
Kind of experiment: fluorescence polarisation.

Experiment [4] addresses T4, fluorescein-labeled BP230 peptide 26-55 (human, UniProt Q03001-8 26-55, N-terminal fluorescein).
T4 peptide (looked up): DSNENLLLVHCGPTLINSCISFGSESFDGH
Kind of experiment: fluorescence polarisation.

Experiment [5] has as its target T1, BP230 10-162 (human). Kind of experiment: SEC. In general terms: In gel filtration, larger molecules generally elute earlier.
Experiment [6] deals with T2, BP230 SR2 (56-162) (human). As to the kind of experiment: SEC.

B1: integrin β4 1436-1666 (β4-CS-FnIII-3,4) (domain or fragment, human, UniProt P16144-2 1436-1666, looked up)
chain: LPRDYSTLTSVSSHDSRLTAGVPDTPTRLVFSALGPTSLRVSWQEPRCERPLQGYSVEYQLLNGGELHRLNIPNPAQTSVVVEDLLPNHSYVFRVRAQSQEGWGREREGVITIESQVHPQSPLCPLPGSAFTLSTPSAPGPLVFTALSPDSLQLSWERPRRPNGDIVGYLVTCEMAQGGGPATAFRVDGDSPESRLTVPGLSENVPYKFKVQARTTEGFGPEREGIITIES
As for B1, the binding entry with BP230 10-162 (human) [1] was “binds weakly”; in experiment [2], “no binding”; in experiment [3], “binds weakly”; in experiment [4] it was “binds weakly”; in the experiment with BP230 10-162 (human) [5] it was “binds weakly”; in experiment [6] it was “no binding”.
